Patent US8178579B2, “Dioxanes and uses thereof” (President and Fellows of Harvard College, priority 2001, dated 2012)
For at least one compound, name, drawing or mass did not settle the structure.

Target: T1, Ure2p (Saccharomyces cerevisiae, UniProt P23202)
T1 construct: endogenous in cells; host or cells: yeast strain DB26-3A (MAT-a ura3-52 ade2 PUT1-lacZ)
T1 sequence (P23202 1-354): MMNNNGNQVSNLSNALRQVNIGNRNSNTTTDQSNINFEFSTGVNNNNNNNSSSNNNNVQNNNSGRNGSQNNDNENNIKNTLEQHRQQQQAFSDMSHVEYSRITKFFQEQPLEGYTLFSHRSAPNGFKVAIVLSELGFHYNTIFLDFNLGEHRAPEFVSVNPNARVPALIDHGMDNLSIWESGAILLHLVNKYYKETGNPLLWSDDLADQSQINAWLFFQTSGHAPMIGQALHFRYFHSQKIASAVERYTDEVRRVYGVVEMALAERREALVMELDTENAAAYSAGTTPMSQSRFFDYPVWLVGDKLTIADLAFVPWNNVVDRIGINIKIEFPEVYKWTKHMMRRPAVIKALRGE
Experiment: PUT1-lacZ reporter β-galactosidase assay
Assay type: cell-based
Settings: yeast in YPD, 30 °C, 60-90 min; rapamycin 50 nM
Procedure: FIG. 24 depicts studies in vivo, dose response and structure-activity relationships of uretupamine. (A) A yeast strain (DB26-3A) growing in YPD medium expressing a PUT1-lacZ reporter was treated with 50 nM rapamycin or with a compound that had been detected to bind to labelled Ure2p on a small-molecule microarray. After 90 min of treatment at 30° C., a standard liquid b-galactosidase assay was performed. Data are expressed in fold Miller units compared with treatment with 50 nM rapamycin for 90 minutes. DB26-3A (MAT-a ura3-52 ade2 PUT1-lacZ) was a gift from M. Brandriss. Vehicle: samples treated with N,N-dimethylformamide (DMF), the vehicle into which library compounds were dissolved (B): Uretupamine A was resynthesized and tested in the b-galactosidase assay by using the PUT1-lacZ reporter at the concentrations indicated for 60 min at 30 C in YPD medium. (C) Compounds derived from the uretupamine A structure were synthesized to explore structure-activity relationships. Listed are b-galactosidase assay results of treatment with each compound at 100 μM (asterisk designates 50 μM) for 60 min at 30 C in YPD medium. Data are in percentage Miller units compared with treating with 50 nM rapamycin for 60 min. […] (D) Binding of uretupamine B to Ure2p was determined by using surface plasmon resonance (BIAcore 3000) to have a dissociation constant of 7.5 μM. […]

CO[C@H]1C[C@@H]2CC[C@@H](C)[C@@](O)(O2)C(=O)C(=O)N2CCCC[C@H]2C(=O)O[C@H]([C@H](C)C[C@@H]2CC[C@@H](O)[C@H](OC)C2)CC(=O)[C@H](C)/C=C(\C)[C@@H](O)[C@@H](OC)C(=O)[C@H](C)C[C@H](C)/C=C/C=C/C=C/1C [rapamycin, reference compound]
activation of PUT1-lacZ reporter: activated this reporter
